{"source": "patent US11096891B2", "about": "“Hybrid muco-adhesive delivery systems and use thereof” (TECHNION RESEARCH & DEVELOPMENT FOUNDATION LIMITED, priority 2016, dated 2021)", "experiment": "Drug penetration through tongue tissue using Franz cell", "type": "in vitro ADME", "details": "free doxorubicin", "note": "For at least one compound, name, drawing or mass did not settle the structure.", "data": [{"smiles": "c1ccc(N2CCNCC2)cc1", "note": "[PPZ, phenylpiprazine]", "values": [{"measurement": "Effect of permeability enhancer on doxorubicin penetration", "value": "effectively improved the penetration of free doxorubicin through the basal layer"}]}]}
